These are yes or no findings as the source states them, for the method shown. Binding seen in cells or lysates may run through a third protein. Some binding calls cover weakened binding; strength is not graded here.
Molecular target: T1, 14-3-3γ (human (endogenous in HK-2, UOK109 and UOK120)) (UniProt P61981)
T1 sequence: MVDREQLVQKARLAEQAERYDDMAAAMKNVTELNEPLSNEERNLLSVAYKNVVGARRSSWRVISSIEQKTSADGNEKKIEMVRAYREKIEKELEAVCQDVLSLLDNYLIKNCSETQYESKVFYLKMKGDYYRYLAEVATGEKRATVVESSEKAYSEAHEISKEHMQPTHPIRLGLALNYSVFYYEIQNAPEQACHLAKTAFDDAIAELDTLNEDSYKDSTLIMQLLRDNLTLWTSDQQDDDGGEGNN
Test: co-IP; endogenous proteins of HK-2, UOK109 and UOK120 cells; an irrelevant IgG as negative control; which antibody precipitated is not told

Sequences of proteins named here, by UniProt entry; tags and fusion partners are left off.
UniProt P19532: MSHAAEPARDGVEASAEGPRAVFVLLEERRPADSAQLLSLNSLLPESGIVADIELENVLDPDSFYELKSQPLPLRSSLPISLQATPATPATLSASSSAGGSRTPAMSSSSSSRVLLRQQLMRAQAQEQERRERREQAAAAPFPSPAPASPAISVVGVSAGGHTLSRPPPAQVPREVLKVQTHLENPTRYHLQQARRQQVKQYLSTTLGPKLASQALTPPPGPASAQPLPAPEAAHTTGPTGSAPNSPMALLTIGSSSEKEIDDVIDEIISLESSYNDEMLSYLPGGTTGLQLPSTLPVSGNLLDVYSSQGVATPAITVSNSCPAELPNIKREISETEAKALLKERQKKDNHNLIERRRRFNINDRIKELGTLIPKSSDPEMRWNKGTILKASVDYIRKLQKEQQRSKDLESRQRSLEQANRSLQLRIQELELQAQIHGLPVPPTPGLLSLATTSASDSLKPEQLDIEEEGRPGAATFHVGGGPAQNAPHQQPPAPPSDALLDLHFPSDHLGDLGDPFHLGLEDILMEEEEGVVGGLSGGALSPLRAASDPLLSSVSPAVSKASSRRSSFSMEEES

wild-type TFE3 (Transcription Factor Binding to IGHM Enhancer 3) (from UniProt P19532 1-575)
binding: binds

Reference: publication PMC6408813
